According to US11787854B2, “Immunological targeting of pathological tau proteins” (New York University, priority 2009, dated 2023):
At least one peptide structure holds a part that was inferred or is arguable (an end, a ring closure or a residue). Where a SMILES comes first, the peptide text is derived from it. [ ]: non-standard residue; d: D form. pS = N[C@@H](COP(=O)(O)O)C(=O)O

Tested on: balb/c mice
Test: Plasma antibody titer in balb/c mice immunized with KLH-linked tau peptide
Format: in vivo, mouse
Settings: phospho vs non-phospho peptides

Q: For CC[C@H](C)[C@H](NC(C)=O)C(=O)NCC(=O)N[C@@H](COP(=O)(O)O)C(=O)N[C@H](C(=O)N[C@@H](CCC(=O)O)C(=O)N[C@@H](CC(N)=O)C(=O)N[C@@H](CC(C)C)C(=O)N[C@@H](CCCCN)C(=O)N[C@@H](Cc1c[nH]cn1)C(=O)N[C@@H](CCC(N)=O)C(=O)N1CCC[C@H]1C(=O)NCC(N)=O)[C@@H](C)O (relative stereo) [Tau260-271[P-Ser262]] (Ac-IG[pS]TENLKHQPG-NH2), which “epitope recognition by plasma antibodies” value is on record?
A: The value was “recognized the non-phospho peptide Tau260-271 as well”.
